In patent US8569467B2, “C-glycoside compounds, and method for preparing C-glycoside compounds” (Ecole Nationale Supérieure de Chimie de Rennes, priority 2008, dated 2013):
The name of at least one read-out is uncertain.

Assay: Solubilising capacity: solubilisation of the dye Disperse Red 13, UV absorbance at 525 nm
Type: physicochemical
Settings: Disperse Red 13 to saturation, decreasing concentrations of compound, FIG. 1

C=CCC(C)(O)C[C@@H]1OC(CO)[C@@H](O)C(O)C1O (single isomer, unassigned) [5-C(Glucosyl)-4-methylpent-1-ene-4-ol, 5-(C-Glucosyl)-4-methylpent-1-ene-4-ol]
solubilising capacity: good solubilising capacity
